Results are given in words; binding and its absence hold for the method and conditions named. Some entries that bind do so weakly or less than the wild type.
Target: human SEZ6 expressed on stably transfected CHO-K1 cells (human) (UniProt Q53EL9)
Test: flow cytometry on SEZ6-expressing CHO-K1 cells

The chains behind the UniProt entries cited, without tags or fusion partners. Where a name states a change or a piece, a line headed by the entry shows the natural chain unless it says otherwise.
UniProt Q53EL9: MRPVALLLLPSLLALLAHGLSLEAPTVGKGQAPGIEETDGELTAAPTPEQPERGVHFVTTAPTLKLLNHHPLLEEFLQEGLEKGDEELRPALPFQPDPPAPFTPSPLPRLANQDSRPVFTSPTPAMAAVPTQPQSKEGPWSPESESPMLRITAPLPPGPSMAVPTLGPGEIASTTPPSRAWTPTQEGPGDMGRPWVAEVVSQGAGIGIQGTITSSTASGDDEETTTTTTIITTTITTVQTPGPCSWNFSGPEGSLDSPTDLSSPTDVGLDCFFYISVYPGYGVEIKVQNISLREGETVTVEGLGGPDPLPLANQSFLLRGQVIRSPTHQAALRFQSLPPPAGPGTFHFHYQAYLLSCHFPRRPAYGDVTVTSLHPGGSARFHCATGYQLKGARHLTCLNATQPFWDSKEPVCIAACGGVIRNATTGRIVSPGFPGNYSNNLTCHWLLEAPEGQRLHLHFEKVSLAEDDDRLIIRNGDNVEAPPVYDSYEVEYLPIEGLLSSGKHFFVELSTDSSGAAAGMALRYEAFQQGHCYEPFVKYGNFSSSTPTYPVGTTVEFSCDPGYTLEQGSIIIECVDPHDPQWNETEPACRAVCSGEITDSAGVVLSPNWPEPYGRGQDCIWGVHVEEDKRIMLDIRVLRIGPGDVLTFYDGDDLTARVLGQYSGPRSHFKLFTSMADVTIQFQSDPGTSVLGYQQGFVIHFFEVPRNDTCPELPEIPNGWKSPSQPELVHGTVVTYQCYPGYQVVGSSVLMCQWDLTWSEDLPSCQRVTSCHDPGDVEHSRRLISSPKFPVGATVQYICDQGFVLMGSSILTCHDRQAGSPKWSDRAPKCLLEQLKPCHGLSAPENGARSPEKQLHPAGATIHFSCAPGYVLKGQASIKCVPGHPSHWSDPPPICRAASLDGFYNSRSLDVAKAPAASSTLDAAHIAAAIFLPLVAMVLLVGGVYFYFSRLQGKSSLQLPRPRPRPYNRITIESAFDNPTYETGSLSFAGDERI

binding | Binder
binds | cAb314 (Fc fusion, not shown: a dimerising Fc or GST) VHH: HVQLVESGGGSVQAGGSLRLSCAVSGFTSSRGWMAWFRQAPGKEREGVAVIGRRSGDIYYADSLKGRFTISHDSTENTLYLQMNNLKPEDTATYYCAVGDQAGHVLTSSPYRYWGQGTQVTVSS
binds | PR3123 (antibody, human IgG1, kappa, V domains shown) VH: EVQLVQSGAEVKKPGSSVKVSCKASGYTFSIYWMHWVRQAPGQGLEWIGMIHPNSGSTNYNEKFKSRATLTVDKSTSTAYMELSSLRSEDTAVYYCARGGNYVAMDYWGQGTLVTVSS VL: DIQLTQSPSSLSASVGDRVTMTCTASSSVSSSYLHWYQQKPGKSPKLWIYSTSNLASGVPSRFSGSGSGTDYTLTISSLQPEDFATYYCHQYHRSLTFGGGTKVEIKR

Further lines, the binder ahead of its results:

Binder | binding
PR3121 (antibody, human IgG1, kappa, V domains shown) VH: EVQLVQSGAEVKKPGSSVKVSCKASGYTFSIYWMHWVRQAPGQGLEWIGMIHPNSGSTNYNEKFKSRATLTVDKSTSTAYMELSSLRSEDTAVYYCARGGNYVAMDYWGQGTLVTVSS VL: DIQMTQSPSSLSASVGDRVTITCTASSSVSSSYLHWYQQKPGKAPKLLIYSTSNLASGVPSRFSGSGSGTDFTLTISSLQPEDFATYYCHQYHRSLTFGGGTKVEIKR | binds
cAb025 (Fc fusion, not shown: a dimerising Fc or GST) VHH: EVQLVESGGGSVQPGGSLRLSCEASGLTYNKDCMAWFRQAPGKEREGVAIINGVGRTRYADSVKGRFTISKDNAKNTLYLQMNNLKPEDTAMYYCAAQRASSSCGSLSRAWYDYWGRGTQVTVSS | binds
